# Reference: publication doi:10.1101/2024.06.14.24308555
# These are yes or no findings as the source states them, for the method shown. Binding seen in cells or lysates may run through a third protein. Some results given as binding are weak or reduced against the parent protein; the word gives no strength. For some assays here: Tags and fused reporters may be left off the sequences shown.
# T1: Flag-GFP-tagged IRF9 (F-G-IRF9) (human) (UniProt Q00978)
# T1 sequence: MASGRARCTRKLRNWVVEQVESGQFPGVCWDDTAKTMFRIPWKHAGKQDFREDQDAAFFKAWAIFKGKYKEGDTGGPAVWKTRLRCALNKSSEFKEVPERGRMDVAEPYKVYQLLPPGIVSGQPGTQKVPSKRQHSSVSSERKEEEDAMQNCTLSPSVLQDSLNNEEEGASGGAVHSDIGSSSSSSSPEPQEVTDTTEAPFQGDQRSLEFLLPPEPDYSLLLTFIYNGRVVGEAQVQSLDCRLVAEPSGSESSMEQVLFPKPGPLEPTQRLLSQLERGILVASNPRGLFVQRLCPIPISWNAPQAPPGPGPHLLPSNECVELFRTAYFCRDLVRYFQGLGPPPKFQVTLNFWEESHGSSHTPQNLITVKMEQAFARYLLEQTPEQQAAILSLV
# T2: IRF9 (interferon regulatory factor 9), endogenous (human (endogenous in HEK293T)) (UniProt Q00978)
# T2 sequence: T1 sequence
# B1: PTP1B, endogenous (enzyme, UniProt P18031 1-435)
# chain: MEMEKEFEQIDKSGSWAAIYQDIRHEASDFPCRVAKLPKNKNRNRYRDVSPFDHSRIKLHQEDNDYINASLIKMEEAQRSYILTQGPLPNTCGHFWEMVWEQKSRGVVMLNRVMEKGSLKCAQYWPQKEEKEMIFEDTNLKLTLISEDIKSYYTVRQLELENLTTQETREILHFHYTTWPDFGVPESPASFLNFLFKVRESGSLSPEHGPVVVHCSAGIGRSGTFCLADTCLLLMDKRKDPSSVDIKKVLLEMRKFRMGLIQTADQLRFSYLAVIEGAKFIMGDSSVQDQWKELSHEDLEPPPEHIPPPPRPPKRILEPHNGKCREFFPNHQWVKEETQEDKDCPIKEEKGSPLNAAPYGIESMSQDTEVRSRVVGGSLRGAQAASPAKGEPSLPEKDEDHALSYWKPFLVNMCVATVLTAGAYLCYRFLFNSNT
# Key:
# [1] = target: T1, Flag-GFP-tagged IRF9 (F-G-IRF9) (human); assay: co-IP
# [2] = target: T2, IRF9 (interferon regulatory factor 9), endogenous (human (endogenous in HEK293T)); assay: co-IP
binder,measurement,setting,value
B1,binding,[1],binds
same,binding,[2],binds
